Positions count from the first letter of the chain named. No constants are given. Whether binding was seen depends on the method and setting. Some entries that bind do so weakly or less than the wild type. One block for each binder: values may come before it.
Assays:
[1] = molecular target: recombinant fibronectin domain ED-B (His)6 (human) (UniProt P02751); test: specificity ELISA on immobilised recombinant ED-B
[2] = molecular target: recombinant fibronectin domain 7-ED-B-8-9 (UniProt P02751); test: specificity ELISA on immobilised recombinant domain 7-EDB-8-9
[3] = molecular target: recombinant fibronectin domain ED-B (His)6 (human) (UniProt P02751); test: ELISA on immobilised ED-B after incubation of the Fab for 4 h at 37 °C in human plasma or PBS
[4] = molecular target: recombinant fibronectin domain ED-B (His)6 (human) (UniProt P02751); test: ELISA, immunohistochemistry and cell adhesion test

Amino acid sequences for entries named in this document (tags omitted). A change or cut given only in a name is not applied to a line headed by its entry. Chains listed by the source or under a name are the forms on record and can include a tag or linker. Residues count along the entry.
recombinant fibronectin domain 7-ED-B-8-9 (P02751, residues 1173-1537): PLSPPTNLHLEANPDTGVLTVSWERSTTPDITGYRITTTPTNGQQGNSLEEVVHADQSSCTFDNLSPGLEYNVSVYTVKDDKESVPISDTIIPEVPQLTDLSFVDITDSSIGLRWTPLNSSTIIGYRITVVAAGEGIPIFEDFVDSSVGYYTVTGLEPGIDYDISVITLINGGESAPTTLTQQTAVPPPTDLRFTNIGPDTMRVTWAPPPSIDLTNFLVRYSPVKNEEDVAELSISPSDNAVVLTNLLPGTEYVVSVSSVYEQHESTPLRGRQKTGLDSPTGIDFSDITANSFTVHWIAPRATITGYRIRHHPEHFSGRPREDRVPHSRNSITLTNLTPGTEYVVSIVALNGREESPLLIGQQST
recombinant fibronectin domain ED-B (His)6 (P02751, form named): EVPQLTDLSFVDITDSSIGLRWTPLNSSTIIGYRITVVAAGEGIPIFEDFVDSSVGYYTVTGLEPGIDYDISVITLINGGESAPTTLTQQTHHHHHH

B2: MOR03245 (Fab, V domains shown)
VH: QVQLQESGPGLVKPGETLSLTCTVSGGSISSYYWSWIRQAPGKGLEWIGVIHKWGFTNYNPSLKSRVTISVDTSKNQFSLKLSSVTAADTAVYYCARFFDVWGQGTLVTVSS
VL: DIVLTQPPSVSGAPGQRVTISCSGSSSNIGSNTVRWYQQLPGTAPKLLIYSNNKRPSGVPDRFSGSKSGTSASLAITGLQSEDEADYYCWTGMSYHFVFGGGTKLTVLG
notes: Fab, H-CDR2 derivative of MOR03069
binding [1]: binds | binding [2]: binds | binding [3]: binds

B4: MOR03062 (Fab, V domains shown)
VH: QVQLVESGGGLVQPGGSLRLSCAASGFTFSSYGMHWVRQAPGKGLEWVSVISSSGSYIYYADSVKGRFTISRDNSKNTLYLQMNSLRAEDTAVYYCARNKVGFDVWGQGTLVTVSS
VL: DIALTQPASVSGSPGQSITISCTGTSSDGGGYNTVSWYQQHPGKAPKLMIYYVHKRPSGVSNRFSGSKSGNTASLTISGLQAEDEADYYCQSWDLSVHQVVFGGGTKLTVLG
notes: Fab, L-CDR3 derivative of MOR02715
binding [4]: binds

B5: MOR03255 (Fab, V domains shown)
VH: B4 VH with S53N, S54R, G55S
VL: B4 VL
notes: Fab, H-CDR2 derivative of MOR03062
binding [1]: binds | binding [2]: binds | binding [3]: binds

B6: MOR03064 (Fab, V domains shown)
VH: B4 VH
VL: B4 VL with S96L, V97A, H98P, Q99S
notes: as for B4
binding [4]: binds

B9: MOR03252 (Fab, V domains shown)
VH: B4 VH with S53N, S54Y, G55S, S56W, Y57H
VL: B4 VL
notes: as for B5
binding [1]: binds | binding [2]: binds | binding [3]: binds

B10: MOR02715 (Fab, V domains shown)
VH: B4 VH
VL: B4 VL with S92A, L95N, S96Q, V97G, H98M, Q99K, V100Y
notes: HuCAL GOLD Fab, VH3/L2
binding [1]: binds | binding [2]: binds

B11: MOR03253 (Fab, V domains shown)
VH: B4 VH with S53N, S54M, S56F, Y57E
VL: B4 VL
notes: Fab, H-CDR2 derivative
binding [1]: binds | binding [2]: binds | binding [3]: binds

B12: MOR02619 (Fab, V domains shown)
VH: QVQLQESGPGLVKPGETLSLTCTVSGGSISSYYWSWIRQAPGKGLEWIGIGHWGSTQYNPSLKGRVTISVDTSKNQFSLKLSSVTAEDTAVYYCARFFDVWGQGTLVTVSS
VL: DIVLTQPPSVSGAPGQRVTISCSGSSSNIGSNTVRWYQQLPGTAPKLLIYSNNKRPSGVPDRFSGSKSGTSASLAITGLQSEDEADYYCQSWDGASTGVFGGGTKLTVLG
notes: HuCAL GOLD Fab, VH4/L1
binding [1]: binds | binding [2]: binds

B18: MOR02616 (Fab, V domains shown)
VH: QVQLVESGGGLVQPGGSLRLSCAASGFTFRNNAMHWVRQAPGKGLEWVSAISSSGSGTYYADSVKGRFTISRDNSKNTLYLQMNSLRAEDTAVYYCARVIVLFDYWGQGTLVTVSS
VL: DIVLTQSPATLSLSPGERATLSCRASQNVRSNLAWYQQKPGQAPRLLIYGASNRATGVPARFSGSGSGTDFTLTISSLEPEDFAVYYCLQKYSIPFTFGQGTKVEIKR
notes: HuCAL GOLD Fab, VH3/K3
binding [1]: binds | binding [2]: binds

B19: MOR02614 (Fab, V domains shown)
VH: QVQLVESGGGLVQPGGSLRLSCAASGFTFNNNWMHWVRQAPGKGLEWVSFISGSGSHTYYADSVKGRFTISRDNSKNTLYLQMNSLRAEDTAVYYCARAYDVWGQGTLVTVSS
VL: DIVLTQPPSVSGAPGQRVTISCSGSSSNIGFNYVNWYQQLPGTAPKLLIYGNSKRPSGVPDRFSGSKSGTSASLAITGLQSEDEADYYCAMFSPEGVFGGGTKLTVLG
notes: HuCAL GOLD Fab, VH3/L1
binding [1]: binds | binding [2]: binds

The next lines start with the values.

binding [1]: binds | binding [2]: binds
B1: MOR02610 (Fab, V domains shown)
VH: QVQLVQSGAEVKKPGASVKVSCKASGYTFTGFYINWVRQAPGQGLEWMGWINPYSGNTRYAQKFQGRVTMTRDTSISTAYMELSSLRSEDTAVYYCARSPVYYKYDYWGQGTLVTVSS
VL: DIVLTQPPSVSGAPGQRVTISCSGSSGNIGINFVNWYQQLPGTAPKLLIYKNNKRPSGVPDRFSGSKSGTSASLAITGLQSEDEADYYCQSYDKTSSTYVFGGGTKLTVLG
notes: HuCAL GOLD Fab, VH1B/L1

binding [3]: binds
B3: MOR03243 (Fab, V domains shown)
VH: B2 VH with V50E, K53R, W54G, F56Y, N58Q
VL: DIVLTQPPSVSGAPGQRVTISCSGSSSNIGSNTVRWYQQLPGTAPKLLIYSNNKRPSGVPDRFSGSKSGTSASLAITGLQSEDEADYYCQAWTRAHRYPVFGGGTKLTVLG
notes: Fab, H-CDR2 derivative of MOR03055

binding [1]: binds | binding [2]: binds | binding [3]: binds
B7: MOR03251 (Fab, V domains shown)
VH: B4 VH with S53N, S54M, G55S, S56Y, Y57T
VL: B4 VL
notes: as for B5

binding [1]: binds | binding [2]: binds | binding [3]: binds
B8: MOR03257 (Fab, V domains shown)
VH: B4 VH with S53N, S54R, S56N
VL: B4 VL
notes: as for B5

binding [4]: binds
B13: MOR03055 (Fab, V domains shown)
VH: B12 VH
VL: B3 VL
notes: Fab, L-CDR3 derivative of MOR02619

binding [4]: binds
B14: MOR03069 (Fab, V domains shown)
VH: B12 VH
VL: B2 VL
notes: as for B13

binding [4]: binds
B15: MOR03066 (Fab, V domains shown)
VH: B12 VH
VL: B12 VL with Q90S, W92Y, G94T, A95Q, S96V, G98R
notes: as for B13

binding [4]: binds
B16: MOR03075 (Fab, V domains shown)
VH: B12 VH
VL: B12 VL with G94P, A95R, T97F, G98T
notes: as for B13

binding [4]: binds
B17: MOR03071 (Fab, V domains shown)
VH: B12 VH
VL: B12 VL with Q90L, S91A, W92Y, D93I, G94Q, A95S, S96K, T97G, G98H
notes: as for B13

binding [1]: binds | binding [2]: binds
B20: MOR02722 (Fab, V domains shown)
VH: B19 VH with N30S, N31S, W33A, M34I, F50S, H57N, A99F, Y100I, D101A, V102S
VL: DIVMTQSPLSLPVTPGEPASISCRSSQSLVHSNGYTDLNWYLQKPGQSPQLLIYLGSYRASGVPDRFSGSGSGTDFTLKISRVEAEDVGVYYCQQYSNFPFTFGQGTKVEIKR
notes: HuCAL GOLD Fab, VH3/K2

binding [1]: binds | binding [2]: binds
B21: MOR02613 (Fab, V domains shown)
VH: QVQLVESGGGLVQPGGSLRLSCAASGFTFSNYTMTWVRQAPGKGLEWVSFIIGSGSNTSYADSVKGRFTISRDNSKNTLYLQMNSLRAEDTAVYYCARYVNGFDIWGQGTLVTVSS
VL: DIALTQPASVSGSPGQSITISCTGTSSDVGVYYYVSWYQQHPGKAPKLMIYYDSKRPSGVSNRFSGSKSGNTASLTISGLQAEDEADYYCQTYAKKDYSLVFGGGTKLTVLG
notes: HuCAL GOLD Fab, VH3/L2

binding [1]: binds | binding [2]: binds
B22: MOR02622 (Fab, V domains shown)
VH: QVQLVESGGGLVQPGGSLRLSCAASGFTFSNYAMTWVRQAPGKGLEWVSGISYKSSSTYYADSVKGRFTISRDNSKNTLYLQMNSLRAEDTAVYYCARGLVTFDNWGQGTLVTVSS
VL: DIALTQPASVSGSPGQSITISCTGTSSDGGTYNFVSWYQQHPGKAPKLMIYRVSNRPSGVSNRFSGSKSGNTASLTISGLQAEDEADYYCSSWTHSFTDYVFGGGTKLTVLG
notes: HuCAL GOLD Fab, VH3/L2

binding [1]: binds | binding [2]: binds
B23: MOR02618 (Fab, V domains shown)
VH: QVQLVESGGGLVQPGGSLRLSCAASGFTFNNYGMTWVRQAPGKGLEWVSSIYGYGSNTYYADSVKGRFTISRDNSKNTLYLQMNSLRAEDTAVYYCARNYWVFAYWGQGTLVTVSS
VL: DIELTQPPSVSVAPGQTARISCSGDNIPGKSVHWYQQKPGQAPVLVIYGKMNRPSGIPERFSGSNSGNTATLTISGTQAEDEADYYCQSYDNFNDSVVFGGGTKLTVLG
notes: HuCAL GOLD Fab, VH3/L3

binding [1]: binds | binding [2]: binds
B24: MOR02611 (Fab, V domains shown)
VH: QVQLVQSGAEVKKPGASVKVSCKASGYTFSGSYMHWVRQAPGQGLEWMGIINPASGKTLYAQKFQGRVTMTRDTSISTAYMELSSLRSEDTAVYYCARGLYYRFASWGQGTLVTVSS
VL: DIALTQPASVSGSPGQSITISCTGTSSDIGGYHSVSWYQQHPGKAPKLMIYRSNRPSGVSNRFSGSKSGNTASLTISGLQAEDEADYYCAAATGGWVFGGGTNLTVLG
notes: HuCAL GOLD Fab, VH1B/L2
